Assay [1] deals with Endogenous HPCAL1 of mouse liver tumors (mouse (endogenous in liver tumors)) (UniProt P62748). Kind of assay: co-IP; endogenous HPCAL1 from MYC-induced mouse liver tumors immunoprecipitated with anti-HPCAL1 antibody or isotype IgG control; immunoblot. For orientation: Immunoblotting shows a protein as a band on a membrane.
Assay [2] deals with Endogenous RUVBL1 of mouse liver tumors (mouse (endogenous in liver tumors)) (UniProt P60122). The experiment in a line: co-IP; lysates of DEN-induced liver tumors from WT and Hpcal1-/- mice; Co-IP and immunoblot.

Sequences of proteins named here, by UniProt entry; tags and fusion partners are left off.
UniProt Q9DC40: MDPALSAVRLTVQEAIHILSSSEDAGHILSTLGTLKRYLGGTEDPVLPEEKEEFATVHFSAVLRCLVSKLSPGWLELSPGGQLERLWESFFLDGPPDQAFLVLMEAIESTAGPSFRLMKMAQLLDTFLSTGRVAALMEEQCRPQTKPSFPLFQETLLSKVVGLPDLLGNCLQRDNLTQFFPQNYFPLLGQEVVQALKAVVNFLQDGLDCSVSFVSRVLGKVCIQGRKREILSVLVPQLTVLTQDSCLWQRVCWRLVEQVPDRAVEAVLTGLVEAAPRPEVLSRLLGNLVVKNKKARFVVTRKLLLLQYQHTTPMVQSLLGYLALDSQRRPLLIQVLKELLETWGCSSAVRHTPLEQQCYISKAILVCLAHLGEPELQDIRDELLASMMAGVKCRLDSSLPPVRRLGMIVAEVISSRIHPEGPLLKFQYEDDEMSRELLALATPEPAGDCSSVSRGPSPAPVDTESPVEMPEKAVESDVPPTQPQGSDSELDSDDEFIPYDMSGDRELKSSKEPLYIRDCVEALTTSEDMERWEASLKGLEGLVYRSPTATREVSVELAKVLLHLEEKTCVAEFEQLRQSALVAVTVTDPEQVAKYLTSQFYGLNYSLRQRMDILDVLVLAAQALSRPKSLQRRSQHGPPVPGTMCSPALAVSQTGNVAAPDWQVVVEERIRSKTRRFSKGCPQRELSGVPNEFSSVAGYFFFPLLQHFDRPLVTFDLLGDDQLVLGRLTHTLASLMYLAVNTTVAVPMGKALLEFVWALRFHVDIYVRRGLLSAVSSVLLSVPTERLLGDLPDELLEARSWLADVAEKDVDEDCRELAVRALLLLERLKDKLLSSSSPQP
UniProt Q91V83: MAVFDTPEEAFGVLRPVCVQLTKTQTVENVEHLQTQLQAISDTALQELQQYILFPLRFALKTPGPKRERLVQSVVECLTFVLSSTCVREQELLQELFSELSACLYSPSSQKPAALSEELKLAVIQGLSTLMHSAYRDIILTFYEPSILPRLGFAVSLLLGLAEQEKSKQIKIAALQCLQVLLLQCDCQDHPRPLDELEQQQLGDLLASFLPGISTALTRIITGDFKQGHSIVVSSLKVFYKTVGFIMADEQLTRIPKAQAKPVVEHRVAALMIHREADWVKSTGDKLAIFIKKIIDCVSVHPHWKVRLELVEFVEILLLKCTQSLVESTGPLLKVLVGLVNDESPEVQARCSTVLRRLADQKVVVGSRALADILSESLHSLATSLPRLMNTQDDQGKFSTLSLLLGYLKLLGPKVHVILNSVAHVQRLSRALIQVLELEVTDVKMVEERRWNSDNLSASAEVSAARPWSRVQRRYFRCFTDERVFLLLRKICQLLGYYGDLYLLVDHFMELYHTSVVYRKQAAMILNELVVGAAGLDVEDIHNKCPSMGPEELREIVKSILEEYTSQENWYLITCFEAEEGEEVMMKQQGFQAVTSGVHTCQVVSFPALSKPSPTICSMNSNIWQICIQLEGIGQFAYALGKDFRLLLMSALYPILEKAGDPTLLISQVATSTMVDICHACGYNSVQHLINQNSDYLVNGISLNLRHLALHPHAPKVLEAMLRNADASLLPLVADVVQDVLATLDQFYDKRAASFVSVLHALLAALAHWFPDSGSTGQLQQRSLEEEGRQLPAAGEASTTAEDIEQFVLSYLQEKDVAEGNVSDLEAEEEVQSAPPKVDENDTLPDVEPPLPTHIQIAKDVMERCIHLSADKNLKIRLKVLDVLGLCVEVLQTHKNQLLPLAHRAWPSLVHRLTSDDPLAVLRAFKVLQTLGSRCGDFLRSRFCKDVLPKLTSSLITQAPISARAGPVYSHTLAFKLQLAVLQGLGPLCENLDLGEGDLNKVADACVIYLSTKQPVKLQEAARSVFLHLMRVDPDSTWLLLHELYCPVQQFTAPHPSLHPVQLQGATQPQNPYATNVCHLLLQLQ

Results are given in words; binding and its absence hold for the method and conditions named. Binding seen in cells or lysates may run through a third protein. Some entries that bind do so weakly or less than the wild type.

On to “Endogenous RUVBL1 of mouse liver tumors (from UniProt P60122 1-456)”, for which the binding entry in assay [1] is on record as “binds”.

Turning to “Endogenous TEL2 of mouse liver tumors (from UniProt Q9DC40 1-840)”, the binding result in assay [2] is recorded as “binds”. Regarding “Endogenous TTI1 of mouse liver tumors (from UniProt Q91V83 1-1085)”, the binding entry in assay [2] is “binds”.

These data come from publication PMC9691343.
